{"source": "PubChem BioAssay AID1259297 (Sanger Institute, 2017)", "assay": "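Kinase knock-downs that lower colorectal cancer cell viability or act with drugs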 (primary screen)", "cells": "human RCM1 colorectal cancer cell line", "reagents": "siRNA pool against human genes", "conditions": "separate arms: DMSO vehicle, or one anchor drug at a mild dose: BYL719 1 µM, cetuximab 5 µg/ml, trametinib 10 nM", "measured": "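Viability per well relative to a non-targeting pool, mean of replicates; robust z-score for knock-down alone; synergy score with BYL719, cetuximab or trametinib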", "scale": "viability z-score, knock-down alone: higher = more viable cells than non-targeting controls", "rule for the call": "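Essential when the viability robust z-score for knock-down alone is below -3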", "calls": "active = essential when knocked down alone; inactive = no clear loss of viability alone", "note": "This is a random part of 794 deposited reagents. 13 of them (1.6%) count as active. 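Calls reflect knock-down without drug only; drug synergy is judged separately, with scores above 0.15 counted as synergy.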 Entries without a mark were called inactive. Further read-outs or replicates are left out here. No sequences are given here. Not stated in the record: the amount of reagent, the time to read-out."}
The first 4 entries, to show the layout:
{"Target gene": "DIS3", "viability z-score, knock-down alone": -0.543}
{"Target gene": "CSNK1G2", "viability z-score, knock-down alone": 0.576}
{"Target gene": "PIK3C2A", "viability z-score, knock-down alone": -1.58}
{"Target gene": "EPHA4", "viability z-score, knock-down alone": 0.0494}

Main list, from the first entry:
{"Target gene": "DIS3", "viability z-score, knock-down alone": -0.543}
{"Target gene": "CSNK1G2", "viability z-score, knock-down alone": 0.576}
{"Target gene": "PIK3C2A", "viability z-score, knock-down alone": -1.58}
{"Target gene": "EPHA4", "viability z-score, knock-down alone": 0.0494}
{"Target gene": "SRMS", "viability z-score, knock-down alone": -0.915}
{"Target gene": "CASK", "viability z-score, knock-down alone": -1.48}
{"Target gene": "GALK1", "viability z-score, knock-down alone": -2.94}
{"Target gene": "LATS2", "viability z-score, knock-down alone": 0.501}
{"Target gene": "WT1", "viability z-score, knock-down alone": 0.622}
{"Target gene": "NEK1", "viability z-score, knock-down alone": 0.9}
{"Target gene": "RPS6KL1", "viability z-score, knock-down alone": 0.673}
{"Target gene": "MINK1", "viability z-score, knock-down alone": -0.994}
{"Target gene": "BCKDK", "viability z-score, knock-down alone": 0.9}
{"Target gene": "PIP5K1B", "viability z-score, knock-down alone": 0.000614}
{"Target gene": "TRIM27", "viability z-score, knock-down alone": 0.9}
{"Target gene": "DGKG", "viability z-score, knock-down alone": 0.861}
{"Target gene": "FXN", "viability z-score, knock-down alone": 0.0641}
{"Target gene": "PKLR", "viability z-score, knock-down alone": 0.9}
{"Target gene": "ACVR2A", "viability z-score, knock-down alone": 0.9}
{"Target gene": "RPS6KB1", "viability z-score, knock-down alone": 0.107}
{"Target gene": "PRKDC", "viability z-score, knock-down alone": -0.431}
{"Target gene": "RAF1", "viability z-score, knock-down alone": -0.511}
{"Target gene": "PRKCSH", "viability z-score, knock-down alone": 0.193}
{"Target gene": "CDC42BPA", "viability z-score, knock-down alone": -0.961}
{"Target gene": "PDK3", "viability z-score, knock-down alone": 0.9}
{"Target gene": "ITPKA", "viability z-score, knock-down alone": 0.152}
{"Target gene": "MGA", "viability z-score, knock-down alone": -0.92}
{"Target gene": "DGKA", "viability z-score, knock-down alone": -0.00874}
{"Target gene": "PIK3R2", "viability z-score, knock-down alone": 0.378}
{"Target gene": "MAP2K1", "viability z-score, knock-down alone": 0.9}
{"Target gene": "TAF1L", "viability z-score, knock-down alone": 0.716}
{"Target gene": "LMTK2", "viability z-score, knock-down alone": -0.597}
{"Target gene": "CAMKK2", "viability z-score, knock-down alone": -0.0192}
{"Target gene": "NEK6", "viability z-score, knock-down alone": 0.9}
{"Target gene": "NTN4", "viability z-score, knock-down alone": -1.25}
{"Target gene": "CDK15", "viability z-score, knock-down alone": 0.265}
